Experimental data published in patent publication US7488832B2, “Azolylacylguanidines as β-secretase inhibitors” (Wyeth, priority 2005, dated 2009).
The structures given here were assigned with low confidence; some may be wrong.

By UniProt entry, the sequences of proteins in these tests, tags left out. Residues count along the entry.
UniProt P56817, 46-501 limits assumed: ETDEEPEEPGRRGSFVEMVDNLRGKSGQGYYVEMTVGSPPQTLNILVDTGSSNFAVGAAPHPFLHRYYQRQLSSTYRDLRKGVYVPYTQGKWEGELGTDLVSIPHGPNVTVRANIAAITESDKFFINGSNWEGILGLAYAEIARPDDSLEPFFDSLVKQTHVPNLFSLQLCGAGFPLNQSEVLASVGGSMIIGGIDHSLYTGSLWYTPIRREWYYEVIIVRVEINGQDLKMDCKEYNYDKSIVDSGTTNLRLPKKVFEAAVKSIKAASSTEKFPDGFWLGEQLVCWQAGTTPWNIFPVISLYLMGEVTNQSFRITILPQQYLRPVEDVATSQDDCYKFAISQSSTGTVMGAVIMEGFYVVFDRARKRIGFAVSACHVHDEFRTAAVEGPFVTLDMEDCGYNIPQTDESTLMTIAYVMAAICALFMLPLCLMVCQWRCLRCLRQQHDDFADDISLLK

Target: human BACE1 (Homo sapiens, UniProt P56817)
Test: Fluorescent kinetic assay, human BACE1 (FRET peptide substrate WABC-6);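 also: fluorescence monitored at excitation 320 nm and emission 420 nm over 30 min, with the substrate cleavage rate taken as the linear slope of the signal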
Assay type: biochemical
Conditions: read-out: IC50 (μM) BACE 1, 25 μM substrate WABC-6, pH 4.5, room temperature

| SMILES | IC50 |
| --- | --- |
| NC(=NC(=O)Cn1c(-c2ccccc2)ccc1C12CC3CC(CC(C3)C1)C2)NC1CC1 | 0.11 to 1 µM |
| NC(=NC(=O)Cn1c(-c2ccccc2)ccc1C12CC3CC(CC(C3)C1)C2)NCC1CCCCC1 | 0.11 to 1 µM |
